Measured values as given in PMC3009721.
No constants are given. Whether binding was seen depends on the method and setting. For some of these results: In cells and extracts the contact can be indirect. Some entries that bind do so weakly or less than the wild type.

Protein sequences, listed by entry. Tags and fused reporters are not part of them.
UniProt Q39026: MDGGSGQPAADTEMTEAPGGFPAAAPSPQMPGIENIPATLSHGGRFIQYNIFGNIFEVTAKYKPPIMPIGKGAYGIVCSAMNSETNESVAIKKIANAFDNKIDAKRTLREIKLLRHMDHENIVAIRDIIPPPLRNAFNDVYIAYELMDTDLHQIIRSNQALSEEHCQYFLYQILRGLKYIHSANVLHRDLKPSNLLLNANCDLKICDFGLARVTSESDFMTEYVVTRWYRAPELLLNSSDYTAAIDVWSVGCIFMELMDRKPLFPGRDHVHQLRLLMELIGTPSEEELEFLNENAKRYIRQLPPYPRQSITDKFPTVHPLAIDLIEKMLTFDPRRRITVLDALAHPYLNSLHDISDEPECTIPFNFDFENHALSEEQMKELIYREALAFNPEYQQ

T1: AP2C3 in pBTM116 (Arabidopsis) (UniProt Q9XEE8)
T1 sequence: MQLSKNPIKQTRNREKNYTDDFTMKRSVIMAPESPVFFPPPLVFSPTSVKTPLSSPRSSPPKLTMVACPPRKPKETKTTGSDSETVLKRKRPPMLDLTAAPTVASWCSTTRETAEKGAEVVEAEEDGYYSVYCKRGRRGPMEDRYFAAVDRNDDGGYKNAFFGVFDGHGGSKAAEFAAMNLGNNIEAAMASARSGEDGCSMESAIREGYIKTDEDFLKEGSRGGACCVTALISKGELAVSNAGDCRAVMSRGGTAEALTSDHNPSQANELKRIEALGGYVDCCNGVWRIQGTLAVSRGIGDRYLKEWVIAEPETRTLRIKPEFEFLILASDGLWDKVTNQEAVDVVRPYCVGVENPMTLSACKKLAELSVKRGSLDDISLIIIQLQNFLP

T2: YFPntd-AP2C3 (Arabidopsis) (UniProt Q9XEE8)
T2 sequence: T1 sequence

T3: AP2C3 (Arabidopsis protein phosphatase 2C) in pBD-GAL4cam (Arabidopsis) (UniProt Q9XEE8)
T3 sequence: T1 sequence

B1: YFPctd-MPK3 (enzyme, UniProt Q39023 1-370)
chain: MNTGGGQYTDFPAVETHGGQFISYDIFGSLFEITSKYRPPIIPIGRGAYGIVCSVLDTETNELVAMKKIANAFDNHMDAKRTLREIKLLRHLDHENIIAIRDVVPPPLRRQFSDVYISTELMDTDLHQIIRSNQSLSEEHCQYFLYQLLRGLKYIHSANIIHRDLKPSNLLLNANCDLKICDFGLARPTSENDFMTEYVVTRWYRAPELLLNSSDYTAAIDVWSVGCIFMELMNRKPLFPGKDHVHQMRLLTELLGTPTESDLGFTHNEDAKRYIRQLPNFPRQPLAKLFSHVNPMAIDLVDRMLTFDPNRRITVEQALNHQYLAKLHDPNDEPICQKPFSFEFEQQPLDEEQIKEMIYQEAIALNPTYG

How the values were obtained:
[1] = molecular target: T1, AP2C3 in pBTM116 (Arabidopsis); assay: two-hybrid; quantitative beta-galactosidase measurements; pBTM116-AP2C3 with 18 MAPKs in the pGAD424 vector in L40 yeast cells
[2] = molecular target: T2, YFPntd-AP2C3 (Arabidopsis); assay: split reporter; split-YFP BiFC; YFPntd-PP2Cs co-transfected with YFPctd-MAPKs in Arabidopsis suspension culture protoplasts, reconstituted fluorescence detected by microscopy
[3] = molecular target: T3, AP2C3 (Arabidopsis protein phosphatase 2C) in pBD-GAL4cam (Arabidopsis); assay: two-hybrid; pBD-GAL4cam-PP2C with pAD-MAPK vectors cotransformed in yeast strain PJ-69A (pJ694A in the legend); growth on selective plates

Molecule | binding [2] | other results
MPK6 in pGAD424 (from UniProt Q39026 1-395) (enzyme) |  | binding [1]: binds
YFPctd-MPK6 (from UniProt Q39026 1-395) (enzyme) | binds | 
pAD-MPK6 (from UniProt Q39026 1-395) (enzyme) |  | binding [3]: binds
B1 | binds | 
